Source: PubChem BioAssay AID1259254 (NCATS, 2017)
Assay: 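Finding genes that stop cells copying their DNA twice in one cycle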 (primary screen). Cell system: human HCT116 colorectal cancer cells. Knock-down reagent: single siRNA against human genes. Duration: 3 days. Detection: 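Imaged Hoechst DNA stain sorts each cell into a cycle phase by DNA amount; per plate, G2 fraction set to 0% for non-targeting and 100% for GMNN siRNA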. Scale: G2 robust z-score: higher = more G2 cells, more excess DNA replication. Rule for the call: 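Active siRNAs have a G2 robust z of 5 or more median absolute deviations over the median, which in these data means about 38% or higher of GMNN control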.
Here is an unselected part of about 59,000 reagents. Of all reagents, about 1,550 (2.6%) got an active call. 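G2 share is only a proxy for re-replication; each gene was hit by three separate siRNAs, and active genes were retested.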 Reagents against one gene are numbered here. Further read-outs or replicates are left out here. Not given: the amount of reagent.

What did the screen give for PCDHGB2 (protocadherin gamma subfamily B, 2) #1?
G2 robust z-score: 0.868; call: inactive

With PCDHGB2 (protocadherin gamma subfamily B, 2) #2, how do the results read?
G2 robust z-score: -0.696; call: inactive

For PCDHGB2 (protocadherin gamma subfamily B, 2) #3, what does the deposit list?
G2 robust z-score: 0.296; call: inactive

For CLEC19A (C-type lectin domain containing 19A) #1, what does the deposit list?
G2 robust z-score: -0.356; call: inactive

What did the screen give for CLEC19A (C-type lectin domain containing 19A) #2?
G2 robust z-score: 0.575; call: inactive

What is on record for CLEC19A (C-type lectin domain containing 19A) #3?
G2 robust z-score: -0.934; call: inactive

What is on record for APOBEC3G (apolipoprotein B mRNA editing enzyme catalytic subunit 3G) #1?
G2 robust z-score: 0.316; call: inactive

What is on record for APOBEC3G (apolipoprotein B mRNA editing enzyme catalytic subunit 3G) #2?
G2 robust z-score: 0.088; call: inactive

Which result is listed for APOBEC3G (apolipoprotein B mRNA editing enzyme catalytic subunit 3G) #3?
G2 robust z-score: 3.45; call: inactive

With TAF5 (TATA-box binding protein associated factor 5) #1, what was measured?
G2 robust z-score: -0.59; call: inactive

For TAF5 (TATA-box binding protein associated factor 5) #2, what was measured?
G2 robust z-score: 0.911; call: inactive

For TAF5 (TATA-box binding protein associated factor 5) #3, how do the results read?
G2 robust z-score: 0.366; call: inactive

Which result is listed for RAD17 (RAD17 checkpoint clamp loader component) #1?
G2 robust z-score: 1.45; call: inactive

What did the screen give for RAD17 (RAD17 checkpoint clamp loader component) #2?
G2 robust z-score: -1.13; call: inactive

What did the screen give for RAD17 (RAD17 checkpoint clamp loader component) #3?
G2 robust z-score: -0.0412; call: inactive

4 entries already listed, ordered by “G2 robust z-score”, highest first.
PCDHGB2 (protocadherin gamma subfamily B, 2) #1: G2 robust z-score = 0.868; call = inactive
PCDHGB2 (protocadherin gamma subfamily B, 2) #3: G2 robust z-score = 0.296; call = inactive
CLEC19A (C-type lectin domain containing 19A) #1: G2 robust z-score = -0.356; call = inactive
PCDHGB2 (protocadherin gamma subfamily B, 2) #2: G2 robust z-score = -0.696; call = inactive

The list goes on.
For MAB21L1 (mab-21 like 1) #1, what was measured?
G2 robust z-score: 1.38; call: inactive

Which result is listed for MAB21L1 (mab-21 like 1) #2?
G2 robust z-score: 0.235; call: inactive

What did the screen give for MAB21L1 (mab-21 like 1) #3?
G2 robust z-score: -0.974; call: inactive

How did the screen score NEK7 (NIMA related kinase 7) #1?
G2 robust z-score: 9.25; call: active

Which result is listed for NEK7 (NIMA related kinase 7) #2?
G2 robust z-score: 3.51; call: inactive

Which result is listed for NEK7 (NIMA related kinase 7) #3?
G2 robust z-score: -0.348; call: inactive

For NTNG1 (netrin G1) #1, what was measured?
G2 robust z-score: -0.678; call: inactive

How did the screen score NTNG1 (netrin G1) #2?
G2 robust z-score: 0.492; call: inactive

What did the screen give for NTNG1 (netrin G1) #3?
G2 robust z-score: -0.287; call: inactive
